Patent US20210214368A1, “COMPOUNDS FOR THIOL-TRIGGERED COS AND/OR H2S RELEASE AND METHODS OF MAKING AND USING THE SAME” (University of Oregon, priority 2018, published 2021)
At least one structure is not confirmed: it was looked up by name or label, or the drawing left a doubt.

Legend:
[1] = H2S release by methylene blue (MB) assay upon Cys activation in PBS containing CA; conditions: compound 10 μM, Cys 100 μM; for H2S releasing efficiency (MB assay): CA
RAW 264.7 cells = test: Anti-inflammatory activity: LPS-induced NO2- accumulation (Griess); type: cell-based
HeLa cells = test: Cellular imaging of H2S delivery in HeLa cells with C7-Az probe; type: cell-based; conditions: compound 50 μM, 30 minutes
Protocol: HeLa cells were then plated in poly-D-lysine coated plates (MatTek) containing 2.00 mL of DMEM and incubated at 37° C. under 5% CO2 for 24 hours. The confluent cells were washed with PBS and then co-incubated with NucRed nuclear dye (2 drops), C7-Az (50.0 μM), and compound 202a (50.0 μM) for 30 minutes. Prior to imaging, the cells were washed with PBS and bathed in 2.00 mL of PBS. Cell imaging was performed on a Leica DMi8 fluorescent microscope. […] To confirm that compound 202a was not cytotoxic, confluent HeLa cells were incubated in FBS-free DMEM containing vehicle (0.5% DMSO), and compound 202a (6.25-50.0 μM) for 30 minutes in a 96-well plate. The culture media were then removed and 100 μL of FBS-free DMEM containing 10% CCK-8 solution was added to each well, and cells were incubated for 2 hours at 37° C. The absorbance at 450 nm was measured by using a microplate reader (see FIG. 8). The cell viability was measured and normalized to the vehicle group. The results are expressed as mean t SEM (n=6).

[2] = Cys-triggered fluorescence turn on in PBS; conditions: compound 10 μM, Cys 100 μM
Protocol: Representative Measurement of Fluorescence Intensity of Compound Embodiments—A freshly prepared compound 202a stock solution (3.00 μL, 10.0 mM in DMSO) was added to 3.00 mL of PBS (Ph 7.40, 10.0 Mm) containing CA (25.0 μg/mL) in a quartz fluorescence cuvette. A Cys stock solution (10.0 mM) was then added to reach the desired working concentration. The reaction solution was excited at 490 nm and the fluorescence intensity (500-650 nm) was measured and recorded using a Quanta Master 40 spectrofluorometer.
In this example, it was determined that Cys-induced compound 202a activation can be monitored by tracking the fluorescein formation and accompanied fluorescence response, and, in some embodiments, the reaction proceeds more quickly when higher concentrations of thiols are added. Time-dependent fluorescence spectra (FIG. 2A) and UV-vis spectra (FIG. 2B) of a particular compound embodiment, compound 202a, (10 μM) in PBS buffer (pH 7.4, 10 mM) containing Cys (100 μM) and CA (25 μg/mL) were obtained using a fluorescence spectrometer. […] The absorbance (350-600 nm) was measured for 3 hours using a Cary 100 spectrometer. A Cys-dependent fluorescence enhancement was observed when treating compound 202a (10 μM) with increasing concentrations of Cys (1-20 equiv.), indicating a high sensitivity of compound 202a towards Cys. […]

[3] = Selectivity of fluorescence turn on to cellular RSONs and thiols; conditions: compound 10 μM
Protocol: Representative Procedure for Evaluating Selectivity of Compound EmbodIments to Cellular RSONs—To 3.00 mL of PBS was added a stock solution of compound 202a (3.00 μL, 10.0 mM in DMSO), followed by the addition of RSON stock solution (30.0 μL, 10.0 mM in H2O). After 2 hours of incubation at room temperature, the solution was excited at 490 nm and the fluorescence intensity (500-650 nm) was measured and recorded by using a Quanta Master 40 spectrofluorometer. For the NEM-pretreated group, NEM (30.0 μL, 1.00 M) was added to PBS (3.00 mL) containing CA (25.0 μg/mL) and Cys (100 μM). The solution was then incubated for 1 hour before adding the compound 202a stock solution (3.00 μL, 10.0 mM in DMSO).
In this example, fluorescence turn on of compound 202a (10 μM) in the presence of cellular reactive sulfur, oxygen, and nitrogen species (RSONs) (100 μM) was evaluated. Results are shown in FIG. 5, wherein bar 1=compound 202a only, bar 2=H2O2, bar 3=ClO^−, bar 4=O2^−, bar 5=tert-butyl hydroperoxide (TBHP), bar 6=Ser, bar 7=Lys, bar 8=Gly, bar 9=GSSG, bar 10=GSNO, bar 11=porcine liver esterase (PLE) (1 U/mL), bar 12=bovine serum albumin (BSA), bar 13=penicillamine (PEN), bar 14=N-acetyl cysteine (NAC), bar 15=Hcy, bar 16=GSH, bar 17=Cys, and bar 18=Cys+N-ethylmaleimide (NEM). Compound 202a (10 μM) was incubated with GSH, homocysteine (Hcy), N-acetyl cysteine (NAC), penicillamine (PEN), or bovine serum albumin (BSA) (100 μM), in PBS buffer (pH 7.4, 10 mM) containing CA (25 μg/mL) and the fluorescent intensity was measured after 2 hours. Compound 202a was stable in PBS at physiological pH in the absence of thiols (FIG. 5, bar 1).
Compound 202a also (10 μM) was incubated with RSONs (100 μM), such as H2O2, ClO^−, O2^−, TBHP, Ser, Lys, Gly, GSSG, and GSNO, and COS/H2S release was monitored by tracking the fluorescein formation. […] Because the carbonate functional group may be sensitive to esterase-catalyzed hydrolysis, the esterase stability of the sulfenyl thiocarbonate group also was evaluated by incubating compound 202a (10 μM) with porcine liver esterase (PLE, 1 U/mL).

Question: For `COc1ccc2c(c1)Oc1cc(OC(=O)SSCc3ccccc3)ccc1C21OC(=O)c2ccccc21` (stereo not drawn) [Compound 202c], which “H2S releasing efficiency (MB assay)” value ([1]; PBS) is on record?
Answer: Its value is 96%.

Question: What about the “H2S detected in the absence of CA” value ([1]; no CA) of the same compound?
Answer: Its value is “Negligible H2S was detected”.

Question: With `O=C1OC2(c3ccc(O)cc3Oc3cc(O)ccc32)c2ccccc21` [fluorescein] as the compound, how does the “anti-inflammatory activity at 25 μM (NO2− production)” value (RAW 264.7 cells; pretreatment 25 μM for 2 hours, then LPS 0.500 μg/mL 24 hours) read?
Answer: The value was “none of these species exhibited anti-inflammatory activities”.

Question: With `O=C(Oc1ccc2c(c1)Oc1cc(OC(=O)SSCc3ccccc3)ccc1C21OC(=O)c2ccccc21)SSCc1ccccc1` [Compound 202a] as the compound, how does the “fluorescence in the fluorescein channel in HeLa cells” value (HeLa cells) read?
Answer: Its value is “strong fluorescence signal”.

Question: And the “C7-Az (H2S probe) fluorescence in HeLa cells” value (HeLa cells; C7-Az 50 μM)?
Answer: The value was “strong C7-Az fluorescent signal”.

Question: And the “H2S detected (MB assay)” value ([1]; CA 25 μg/mL, PBS)?
Answer: The value was 15 µM.

Question: And the “H2S releasing efficiency (MB assay)” value ([1]; PBS)?
Answer: Its value is 75%.

Question: What about the fluorescence turn on ([2]; PBS pH 7.4, over 2 hours) of the same compound?
Answer: Its fluorescence turn on is 500 fold.

Question: And the “inhibition of LPS-induced NO2− accumulation” value (RAW 264.7 cells; pretreatment 0-25 μM for 2 hours, then LPS 0.5 μg/mL 24 hours)?
Answer: The value was “dose-dependent inhibition of NO2^− accumulation”.

Question: What about the “activation by bovine serum albumin (BSA)” value ([3]; BSA 100 μM, 2 hours) of the same compound?
Answer: Its value is “did not activate the compound”.

Question: What about the “fluorescence with Cys after N-ethylmaleimide (NEM) pretreatment” value ([3]; Cys 100 μM + NEM) of the same compound?
Answer: The value was “significantly reduced the fluorescence enhancement”.

Question: And the “fluorescence with penicillamine (PEN)” value ([3]; PEN 100 μM, 2 hours)?
Answer: Its value is “only minimal fluorescence response”.

Question: And the “fluorescence with RSONs (H2O2, ClO−, O2−, TBHP, Ser, Lys, Gly, GSSG, GSNO)” value ([3]; RSONs 100 μM)?
Answer: Its value is “Minimal fluorescence was observed”.

Question: And the “fluorescence with Cys, NAC, GSH, and Hcy” value ([3]; thiol 100 μM, CA 25 μg/mL, 2 hours)?
Answer: The value was “significant fluorescence enhancement”.

Question: Which “fluorescence response to Cys” value ([2]; PBS pH 7.4) does the source give for `O=C(Oc1ccc2c(c1)Oc1cc(OC(=O)SSc3ccccc3)ccc1C21OC(=O)c2ccccc21)SSc1ccccc1` [Compound 202b] here?
Answer: Its value is “faster response”.
